Measurements: US20240301068A1 (BEIJING HANMI PHARMACEUTICAL, published 2024)
No constants are given. Whether binding was seen depends on the method and setting. Some binding calls cover weakened binding; strength is not graded here.

The chains behind the UniProt entries cited, without tags or fusion partners. Residues count along the entry.
UniProt Q9NZQ7, residues 19-239: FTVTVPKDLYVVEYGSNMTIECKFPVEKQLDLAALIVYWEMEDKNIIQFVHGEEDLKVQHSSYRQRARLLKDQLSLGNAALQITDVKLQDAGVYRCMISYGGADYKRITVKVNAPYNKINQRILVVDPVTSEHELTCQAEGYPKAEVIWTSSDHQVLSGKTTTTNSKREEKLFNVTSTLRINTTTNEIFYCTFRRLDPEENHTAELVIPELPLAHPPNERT

Key:
[1] = target: recombinant human PD-L1 (Sino Biological Inc.) (human) (UniProt Q9NZQ7); test: ELISA, human PD-L1 coated, hybridoma supernatant
[2] = target: recombinant cynomolgus PD-L1 (Sino Biological Inc.) (cynomolgus) (UniProt G7PSE7); test: ELISA, antigen coated at 1 ug/mL

Row | binding [1] | binding [2] | Binder
1 | binds | – | murine anti-human PD-L1 monoclonal antibody secreted by the clone 34-35 (antibody, V domains shown, also called murine monoclonal antibodies) VH: EVQLQQSGAELVKPGASVKLSCTASGFNIEDTYIHWVMQRPEQGLEWIGRIDPANGNTKYDPKFQGKATITADTSSNTAYLQLSSLTSEDTAVYYCGRGLGAWFAYWGQGTLVTVSA VL: DIVMTQSHKVMSTSVGDRVTITCKASQDVHTAVAWIHQKPGQSPKLLIYSASNRYTGVPDRFTGSGSGTDFTFTISSVQAEDLAVYYCQQHYITPLTFGAGTTLELK
2 | – | binds | chimeric anti-human PD-L1 monoclonal antibody (antibody, human IgG1, kappa, V domains shown, expressed in ExpiCHO cells; also called Chimeric mAb; Chimeric antibody) VH: EVQLQQSGAELVKPGASVKLSCTASGFNIEDTYIHWVMQRPEQGLEWIGRIDPANGNTKYDPKFQGKATITADTSSNTAYLQLSSLTSEDTAVYYCGRGLGAWFAYWGQGTLVTVSA VL: DIVMTQSHKVMSTSVGDRVTITCKASQDVHTAVAWIHQKPGQSPKLLIYSASNRYTGVPDRFTGSGSGTDFTFTISSVQAEDLAVYYCQQHYITPLTFGAGTTLELKR
